Experimental data taken from US9108920B2, “Diazeniumdiolate heterocyclic derivatives” (Merck Sharp & Dohme Corp., priority 2010, dated 2015).
Some of these results come from one statement about several compounds together.

System: Male beagle dogs
Test: canine telemetry protocol, blood pressure reduction efficacy
Type: in vivo
Settings: drop over a 1-6 hour period of time; 3 mg/kg oral gavage
Description: Compounds of the invention were evaluated for blood pressure reduction efficacy using the following canine telemetry protocol described below.
Male beagle dogs (approximately 1-3 years old) with a body weight of between 10 and 16 kg were surgically implanted with DSI radiotelemetry devices (model: TL11M2-D70-PCT). Briefly, under an inhalant anesthesia, isoflurane/oxygen mixture (1-3.5%/to effect), the body of the telemetry device was positioned and secured intra-abdominally. Subsequently, the arterial catheter of the telemetry device was passed subcutaneously to the inguinal area and introduced into the femoral artery and advanced to the level of the descending aorta. The catheter was secured with 2-0 silk ligatures. The muscle and underlying fascia was closed over the catheter using absorbable suture and the skin was closed using non-absorbable suture. The animals were allowed a minimum recovery period of 2 weeks between surgery and the evaluation of test compounds.
Compound evaluation consisted of a 3 day paradigm at a 3 mg/kg dose. On the first day, no compounds were administered during a 24 hour period of baseline data collection. Blood pressure and heart rate data were collected continuously for one minute periods at 10 minute intervals. On the days of compound administration half the animals received test article with the other half receiving the vehicle used for compound formulation. All test materials were administered by oral gavage in a volume of 1 mL/kg. Data are expressed either as raw values (mm Hg or beats per minute) or as the change from baseline (average value for about 12 hours in low activity period prior to dosing).

| Substance | dropped blood pressure |
| --- | --- |
| O^2-[(3R)-1-(3-chlorophenyl)-2-oxopyrrolidin-3-yl]1-(N-tert-butyl-N-methylamino)diazen-1-ium-1,2-diolate [Example 71] | at least 5 mm Hg |
| O^2-[(3R)-1-(3-cyanophenyl)-2-oxopyrrolidin-3-yl]1-(N-tert-butyl-N-methylamino)diazen-1-ium-1,2-diolate [Example 67] | at least 5 mm Hg |
| O^2-[(3R)-1-(3-fluorophenyl)-2-oxopyrrolidin-3-yl]1-(N-tert-butyl N-methylamino)diazen-1-ium-1,2-diolate [Example 76] | at least 5 mm Hg |
| O^2-{(3R)-2-oxo-1-[3-propan-2-yl)phenyl]pyrrolidin-3-yl}1-(N-tert-butyl N-methylamino)diazen-1-ium-1,2-diolate [Example 72] | at least 5 mm Hg |
